Results published in patent publication US20250283871A1, “COMPOSITIONS AND METHODS FOR MODULATING THE INTERACTION BETWEEN SS18-SSX FUSION ONCOPROTEIN AND NUCLEOSOMES” (Dana-Farber Cancer Institute, Inc., priority 2020, published 2025).

B1: TMPO (protein, UniProt P42166 2-694, looked up)
Lamina-associated polypeptide …: PEFLEDPSVLTKDKLKSELVANNVTLPAGEQRKDVYVQLYLQHLTARNRPPLPAGTNSKGPPDFSSDEEREPTPVLGSGAAAAGRSRAAVGRKATKKTDKPRQEDKDDLDVTELTNEDLLDQLVKYGVNPGPIVGTTRKLYEKKLLKLREQGTESRSSTPLPTISSSAENTRQNGSNDSDRYSDNEEGKKKEHKKVKSTRDIVPFSELGTTPSGGGFFQGISFPEISTRPPLGSTELQAAKKVHTSKGDLPREPLVATNLPGRGQLQKLASERNLFISCKSSHDRCLEKSSSSSSQPEHSAMLVSTAASPSLIKETTTGYYKDIVENICGREKSGIQPLCPERSHISDQSPLSSKRKALEESESSQLISPPLAQAIRDYVNSLLVQGGVGSLPGTSNSMPPLDVENIQKRIDQSKFQETEFLSPPRKVPRLSEKSVEERDSGSFVAFQNIPGSELMSSFAKTVVSHSLTTLGLEVAKQSQHDKIDASELSFPFHESILKVIEEEWQQVDRQLPSLACKYPVSSREATQILSVPKVDDEILGFISEATPLGGIQAASTESCNQQLDLALCRAYEAAASALQIATHTAFVAKAMQADISQAAQILSSDPSRTHQALGILSKTYDAASYICEAAFDEVKMAAHTMGNATVGRRYLWLKDCKINLASKNKLASTPFKGGTLFGGEVCKVIKKRGNKH
B2: SKIV2L2 (protein, UniProt P42285 2-1042, looked up)
Exosome RNA helicase MTR4: ADAFGDELFSVFEGDSTTAAGTKKDKEKDKGKWKGPPGSADKAGKRFDGKLQSESTNNGKNKRDVDFEGTDEPIFGKKPRIEESITEDLSLADLMPRVKVQSVETVEGCTHEVALPAEEDYLPLKPRVGKAAKEYPFILDAFQREAIQCVDNNQSVLVSAHTSAGKTVCAEYAIALALREKQRVIFTSPIKALSNQKYREMYEEFQDVGLMTGDVTINPTASCLVMTTEILRSMLYRGSEVMREVAWVIFDEIHYMRDSERGVVWEETIILLPDNVHYVFLSATIPNARQFAEWICHLHKQPCHVIYTDYRPTPLQHYIFPAGGDGLHLVVDENGDFREDNFNTAMQVLRDAGDLAKGDQKGRKGGTKGPSNVFKIVKMIMERNFQPVIIFSFSKKDCEAYALQMTKLDFNTDEEKKMVEEVFSNAIDCLSDEDKKLPQVEHVLPLLKRGIGIHHGGLLPILKETIEILFSEGLIKALFATETFAMGINMPARTVLFTNARKFDGKDFRWISSGEYIQMSGRAGRRGMDDRGIVILMVDEKMSPTIGKQLLKGSADPLNSAFHLTYNMVLNLLRVEEINPEYMLEKSFYQFQHYRAIPGVVEKVKNSEEQYNKIVIPNEESVVIYYKIRQQLAKLGKEIEEYIHKPKYCLPFLQPGRLVKVKNEGDDFGWGVVVNFSKKSNVKPNSGELDPLYVVEVLLRCSKESLKNSATEAAKPAKPDEKGEMQVVPVLVHLLSAISSVRLYIPKDLRPVDNRQSVLKSIQEVQKRFPDGIPLLDPIDDMGIQDQGLKKVIQKVEAFEHRMYSHPLHNDPNLETVYTLCEKKAQIAIDIKSAKRELKKARTVLQMDELKCRKRVLRRLGFATSSDVIEMKGRVACEISSADELLLTEMMFNGLFNDLSAEQATALLSCFVFQENSSEMPKLTEQLAGPLRQMQECAKRIAKVSAEAKLEIDEETYLSSFKPHLMDVVYTWATGATFAHICKMTDVFEGSIIRCMRRLEELLRQMCQAAKAIGNTELENKFAEGITKIKRDIVFAASLYL

Test system: BAF complex subunits and histone proteins
Assay: Mass spectrometry proteomics of purified HA-SS18 WT and HA-SS18-SSX1 complexes (Tables 5A-5E)
Parameters: species or system human
Conditions: HEK-293T
[1] = HA-SS18SSX1_CHR_peptides: protein identified in the HA-SS18-SSX1 purification from solubilized chromatin (CHR)
[2] = HA-SS18SSX1 purification, NE (soluble nuclear extract) fraction, peptides per identified protein
[3] = HA-SS18WT_CHR_peptides: HA-SS18 WT purification from nuclease-treated solubilized chromatin (CHR), label = protein identified
[4] = HA-SS18WT_NE_peptides: proteins co-purified with HA-SS18 WT from nuclear extract (NE)

Molecule | Total (total peptides) [1] | Unique (unique peptides) [1] | Total (total peptides) [2] | Unique (unique peptides) [2] | Total (peptides) [3] | Unique (peptides) [3] | Total (peptides) [4] | Unique (peptides) [4]
B1 | 7 | 7 | 7 | 6 | 3 | 3 | 2 | 2
B2 | 7 | 7 |  |  | 3 | 3 | 2 | 2
